This experiment has as its system S5 cells. In words: High throughput screen: ATP level (viable cells) in S5 cells with reduced SMN. It is filed as cell-based, chicken. To be noted: Gallus gallus, percentage increase of ATP level relative to cells treated with DMSO only, 18 ng/ml tet, 0.5 to 20 μM, read-out: Maximum Activity (%). The procedure: In the SMN conditional knockout cell line, S5, the endogenous smn gene is disrupted by homologous recombination, and the SMN protein is stably expressed from an SMN cDNA under the control of a tetracycline (tet)-repressible promoter (Wang and Dreyfuss (2001) supra).
Libraries of compounds were screened against the S5 cell line. […] The cells were incubated for an additional 72 hours and the number of viable cells in each well was determined by measuring the ATP level in the cell lysate, a sensitive assay commonly used to assess cell viability in HTS (Crouch, et al. (1993) J. Immunol. Methods 160:81-88). […] Activity of the compounds was measured as the difference between the sample and the average of the controls.
The activities of all compounds were further examined at concentrations ranging from 0.5 to 20 μM. […] The activity of each compound was determined as a percentage increase of the ATP level, reflecting the number of viable cells, relative to cells treated with an equal volume of DMSO only. […]
After being incubated in medium containing 18 ng/ml tet for 24 hours, S5 cells were dispensed into 96-well plates at 120 μl per well. […] Luminescence was read on a Wallac Victor2 multi-channel plate reader (Perkin-Elmer, Boston, Mass.). […] Data from luminescence readings were analyzed with MICROSOFT® Excel.

On to `Cc1ccccc1C(OCCN(C)C)c1ccccc1` (stereo not shown) [Compound 26], for which the Emax worked out at 45%.

The values are drawn from patent publication US8188070B2, “Method of treating neurological diseases and disorders” (The Trustees of the University of Pennsylvania, priority 2002, dated 2012).
